# Measured values published in the supplement of paper PMC8728848.
# The list shows a part of the results.
# B1: AntigenI/IIC123 (Streptococcus mutans), C9E3B4 (protein)
# chain: MASMTGGQQMGRIHFHYFKLAVQPQVNKEIRNNNDINIDRTLVAKQSVVKFQLKTADLPAGRDETTSFVLVDPLPSGYQFNPEATKAASPGFDVTYDNATNTVTFKATAATLATFNADLTKSVATIYPTVVGQVLNDGATYKNNFTLTVNDAYGIKSNVVRVTTPGKPNDPDNPNNNYIKPTKVNKNENGVVIDGKTVLAGSTNYYELTWDLDQYKNDRSSADTIQKGFYYVDDYPEEALELRQDLVKITDANGNEVTGVSVDNYTNLEAAPQEIRDVLSKAGIRPKGAFQIFRADNPREFYDTYVKTGIDLKIVSPMVVKKQMGQTGGSYENQAYQIDFGNGYASNIIINNVPKINPKKDVTLTLDPADTNNVDGQTIPLNTVFNYRLIGGIIPADHSEELFEYNFYDDYDQTGDHYTGQYKVFAKVDITFKDGSIIKSGAELTQYTTAEVDTAKGAITIKFKEAFLRSVSIDSAFQAESYIQMKRIAVGTFENTYINTVNGVTYSSLEHHHHHH
# Tests used:
# Test in all cases: glycan array binding signal (z-score within array); higher = stronger binding
# Conditions in all cases: glycan notation: IUPAC condensed, linker removed
# [1] = biological target: Man(a1-2)Man(a1-3)[Man(a1-2)Man(a1-6)]Man(a1-6)[Man(a1-2)Man(a1-2)Man(a1-3)]Man
# Outline: (§1)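 Columns mapping to the same glycan were averaged after glycan names were converted to IUPAC-condensed notation. The data come from 3228 arrays in the Consortium for Functional Glycomics database, limited to those with an available protein sequence. Binding is reported as a within-array Z-score averaged across arrays of one protein sequence and across linkers.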
# [2] = biological target: Man(a1-2)Man(a1-3)[Man(a1-2)Man(a1-6)]Man(a1-6)[Man(a1-2)Man(a1-2)Man(a1-3)]Man(b1-4)GlcNAc(b1-4)GlcNAc
# Outline: as §1
# [3] = biological target: Man(a1-2)Man(a1-3)[Man(a1-6)]Man(a1-6)[Man(a1-2)Man(a1-3)]Man(b1-4)GlcNAc(b1-4)GlcNAc
# Outline: as §1
# [4] = biological target: Man(a1-2)Man(a1-6)[Man(a1-3)]Man(a1-6)[Man(a1-2)Man(a1-2)Man(a1-3)]Man
# Outline: as §1
# [5] = biological target: Man(a1-2)Man(a1-6)[Man(a1-3)]Man(a1-6)[Man(a1-2)Man(a1-2)Man(a1-3)]Man(b1-4)GlcNAc(b1-4)GlcNAc
# Outline: as §1
# Man(a1-3)[Man(a1-6)]Man = biological target: Man(a1-3)[Man(a1-6)]Man
# Outline: as §1
# [6] = biological target: Man(a1-3)[Man(a1-6)]Man(a1-6)[Man(a1-2)Man(a1-3)]Man(b1-4)GlcNAc(b1-4)GlcNAc
# Outline: as §1
# [7] = biological target: Man(a1-3)[Man(a1-6)]Man(a1-6)[Man(a1-3)]Man
# Outline: as §1
# [8] = biological target: Man(a1-3)[Man(a1-6)]Man(a1-6)[Man(a1-3)]Man(b1-4)GlcNAc(b1-4)GlcNAc
# Outline: as §1
# [9] = biological target: Man(a1-3)[Man(a1-6)]Man(b1-4)GlcNAc(b1-4)GlcNAc
# Outline: as §1
# [10] = biological target: Man(a1-3)[Man(a1-6)]Man(b1-4)GlcNAc(b1-4)[Fuc(a1-6)]GlcNAc
# Outline: as §1
# Man(a1-6)Man = biological target: Man(a1-6)Man
# Outline: as §1
# Man(b1-4)GlcNAc = biological target: Man(b1-4)GlcNAc
# Outline: as §1
# MurNAc(b1-4)GlcNAc = biological target: MurNAc(b1-4)GlcNAc
# Outline: as §1
# Neu5Ac(a2-3)Gal = biological target: Neu5Ac(a2-3)Gal
# Outline: as §1
# [11] = biological target: Neu5Ac(a2-3)Gal(b1-3)GalNAc
# Outline: as §1
# [12] = biological target: Neu5Ac(a2-3)Gal(b1-3)GalNAc(b1-3)Gal(a1-4)Gal(b1-4)Glc
# Outline: as §1
# [13] = biological target: Neu5Ac(a2-3)Gal(b1-3)GalNAc(b1-4)[Neu5Ac(a2-3)]Gal(b1-4)Glc
# Outline: as §1
# [14] = biological target: Neu5Ac(a2-3)Gal(b1-3)GalNAc(b1-4)[Neu5Ac(a2-8)Neu5Ac(a2-3)]Gal(b1-4)Glc
# Outline: as §1
# [15] = biological target: Neu5Ac(a2-3)Gal(b1-3)GalNAc6S
# Outline: as §1
# [16] = biological target: Neu5Ac(a2-3)Gal(b1-3)GlcNAc
# Outline: as §1
# [17] = biological target: Neu5Ac(a2-3)Gal(b1-3)GlcNAc(b1-2)Man
# Outline: as §1
# [18] = biological target: Neu5Ac(a2-3)Gal(b1-3)GlcNAc(b1-2)Man(a1-3)[GlcNAc(b1-4)][Neu5Ac(a2-3)Gal(b1-3)GlcNAc(b1-2)Man(a1-6)]Man(b1-4)GlcNAc(b1-4)GlcNAc
# Outline: as §1
# [19] = biological target: Neu5Ac(a2-3)Gal(b1-3)GlcNAc(b1-2)Man(a1-3)[Neu5Ac(a2-3)Gal(b1-3)GlcNAc(b1-2)Man(a1-6)]Man(b1-4)GlcNAc(b1-4)GlcNAc
# Outline: as §1
# [20] = biological target: Neu5Ac(a2-3)Gal(b1-3)GlcNAc(b1-3)Gal(b1-3)GlcNAc
# Outline: as §1
# [21] = biological target: Neu5Ac(a2-3)Gal(b1-3)GlcNAc(b1-3)Gal(b1-4)GlcNAc
# Outline: as §1
# [22] = biological target: Neu5Ac(a2-3)Gal(b1-3)GlcNAc(b1-3)GalNAc
# Outline: as §1
# [23] = biological target: Neu5Ac(a2-3)Gal(b1-3)GlcNAc(b1-4)Gal(b1-4)Glc
# Outline: as §1
# [24] = biological target: Neu5Ac(a2-3)Gal(b1-3)GlcNAc(b1-6)GalNAc
# Outline: as §1
# [25] = biological target: Neu5Ac(a2-3)Gal(b1-3)GlcNAc6S
# Outline: as §1
# [26] = biological target: Neu5Ac(a2-3)Gal(b1-3)[Fuc(a1-4)]GlcNAc
# Outline: as §1
# [27] = biological target: Neu5Ac(a2-3)Gal(b1-3)[Fuc(a1-4)]GlcNAc(b1-3)Gal(b1-3)[Fuc(a1-4)]GlcNAc
# Outline: as §1
# [28] = biological target: Neu5Ac(a2-3)Gal(b1-3)[Fuc(a1-4)]GlcNAc(b1-3)Gal(b1-4)[Fuc(a1-3)]GlcNAc
# Outline: as §1
# [29] = biological target: Neu5Ac(a2-3)Gal(b1-3)[GlcNAc(b1-6)]GalNAc
# Outline: as §1
# [30] = biological target: Neu5Ac(a2-3)Gal(b1-3)[Neu5Ac(a2-6)]GalNAc
# Outline: as §1
# [31] = biological target: Neu5Ac(a2-3)Gal(b1-3)[Neu5Ac(a2-6)]GlcNAc(b1-3)[Fuc(a1-3)[Gal(b1-4)]GlcNAc(b1-6)]Gal(b1-4)Glc
# Outline: as §1
# [32] = biological target: Neu5Ac(a2-3)Gal(b1-3)]Neu5Ac(a2-3)Gal(b1-4)]GlcNAc
# Outline: as §1
binder,measurement,setting,value
B1,glycan array binding signal (z-score),[1],-0.734
same,glycan array binding signal (z-score),[2],0.792
same,glycan array binding signal (z-score),[3],-0.274
same,glycan array binding signal (z-score),[4],-0.547
same,glycan array binding signal (z-score),[5],-0.882
same,glycan array binding signal (z-score),Man(a1-3)[Man(a1-6)]Man,-0.563
same,glycan array binding signal (z-score),[6],1.1
same,glycan array binding signal (z-score),[7],-0.54
same,glycan array binding signal (z-score),[8],0.117
same,glycan array binding signal (z-score),[9],0.013
same,glycan array binding signal (z-score),[10],-0.768
same,glycan array binding signal (z-score),Man(a1-6)Man,0.346
same,glycan array binding signal (z-score),Man(b1-4)GlcNAc,-0.494
same,glycan array binding signal (z-score),MurNAc(b1-4)GlcNAc,0.064
same,glycan array binding signal (z-score),Neu5Ac(a2-3)Gal,-0.677
same,glycan array binding signal (z-score),[11],-0.563
same,glycan array binding signal (z-score),[12],0.243
same,glycan array binding signal (z-score),[13],-0.634
same,glycan array binding signal (z-score),[14],-0.246
same,glycan array binding signal (z-score),[15],-1.07
same,glycan array binding signal (z-score),[16],-0.489
same,glycan array binding signal (z-score),[17],1
same,glycan array binding signal (z-score),[18],0.141
same,glycan array binding signal (z-score),[19],0.211
same,glycan array binding signal (z-score),[20],-1.17
same,glycan array binding signal (z-score),[21],-0.275
same,glycan array binding signal (z-score),[22],0.196
same,glycan array binding signal (z-score),[23],-0.775
same,glycan array binding signal (z-score),[24],0.391
same,glycan array binding signal (z-score),[25],-0.509
same,glycan array binding signal (z-score),[26],0.144
same,glycan array binding signal (z-score),[27],1.19
same,glycan array binding signal (z-score),[28],0.615
same,glycan array binding signal (z-score),[29],-0.693
same,glycan array binding signal (z-score),[30],0.477
same,glycan array binding signal (z-score),[31],-1.02
same,glycan array binding signal (z-score),[32],-0.663

# Retrieved one by one from above:
binder,measurement,setting,value
B1,glycan array binding signal (z-score),[20],-1.17
same,glycan array binding signal (z-score),[17],1
same,glycan array binding signal (z-score),[6],1.1
